From article PMC6344529
These are yes or no findings as the source states them, for the method shown. In cells and extracts the contact can be indirect. Some entries that bind do so weakly or less than the wild type.

Sequences of proteins named here, by UniProt entry; tags and fusion partners are left off.
UniProt Q3UFQ8: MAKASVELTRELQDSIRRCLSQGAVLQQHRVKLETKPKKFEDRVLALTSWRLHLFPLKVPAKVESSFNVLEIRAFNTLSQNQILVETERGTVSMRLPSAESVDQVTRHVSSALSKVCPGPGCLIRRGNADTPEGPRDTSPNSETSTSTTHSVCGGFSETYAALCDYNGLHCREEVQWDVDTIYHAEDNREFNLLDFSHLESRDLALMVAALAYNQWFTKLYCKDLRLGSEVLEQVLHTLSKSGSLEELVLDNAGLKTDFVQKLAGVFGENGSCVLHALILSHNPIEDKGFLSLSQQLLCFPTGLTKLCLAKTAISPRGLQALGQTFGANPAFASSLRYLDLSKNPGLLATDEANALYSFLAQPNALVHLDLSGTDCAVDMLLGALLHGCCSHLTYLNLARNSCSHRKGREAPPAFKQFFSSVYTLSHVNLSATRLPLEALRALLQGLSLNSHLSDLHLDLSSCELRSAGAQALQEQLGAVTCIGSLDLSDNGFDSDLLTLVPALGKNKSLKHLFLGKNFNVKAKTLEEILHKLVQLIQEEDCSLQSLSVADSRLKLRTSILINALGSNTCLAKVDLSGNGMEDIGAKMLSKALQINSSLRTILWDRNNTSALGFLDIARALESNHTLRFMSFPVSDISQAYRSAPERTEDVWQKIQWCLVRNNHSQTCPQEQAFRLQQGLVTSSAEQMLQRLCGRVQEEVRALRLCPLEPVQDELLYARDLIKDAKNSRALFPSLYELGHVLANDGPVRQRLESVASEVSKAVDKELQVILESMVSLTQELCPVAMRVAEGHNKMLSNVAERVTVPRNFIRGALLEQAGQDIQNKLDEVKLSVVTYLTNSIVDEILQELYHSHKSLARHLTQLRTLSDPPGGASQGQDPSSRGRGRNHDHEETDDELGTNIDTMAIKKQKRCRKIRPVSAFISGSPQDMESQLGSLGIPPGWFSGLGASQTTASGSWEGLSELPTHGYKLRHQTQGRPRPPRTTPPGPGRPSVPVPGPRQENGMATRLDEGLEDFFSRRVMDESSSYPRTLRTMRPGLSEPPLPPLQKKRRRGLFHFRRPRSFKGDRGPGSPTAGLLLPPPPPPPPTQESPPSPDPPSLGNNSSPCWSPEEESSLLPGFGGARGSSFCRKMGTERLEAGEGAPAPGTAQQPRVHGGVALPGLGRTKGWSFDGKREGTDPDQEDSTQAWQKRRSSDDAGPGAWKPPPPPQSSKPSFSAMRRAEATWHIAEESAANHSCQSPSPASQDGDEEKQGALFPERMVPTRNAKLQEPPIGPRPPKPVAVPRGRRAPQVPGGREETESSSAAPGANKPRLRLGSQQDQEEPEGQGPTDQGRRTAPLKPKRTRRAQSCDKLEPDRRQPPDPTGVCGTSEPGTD
UniProt Q812A2: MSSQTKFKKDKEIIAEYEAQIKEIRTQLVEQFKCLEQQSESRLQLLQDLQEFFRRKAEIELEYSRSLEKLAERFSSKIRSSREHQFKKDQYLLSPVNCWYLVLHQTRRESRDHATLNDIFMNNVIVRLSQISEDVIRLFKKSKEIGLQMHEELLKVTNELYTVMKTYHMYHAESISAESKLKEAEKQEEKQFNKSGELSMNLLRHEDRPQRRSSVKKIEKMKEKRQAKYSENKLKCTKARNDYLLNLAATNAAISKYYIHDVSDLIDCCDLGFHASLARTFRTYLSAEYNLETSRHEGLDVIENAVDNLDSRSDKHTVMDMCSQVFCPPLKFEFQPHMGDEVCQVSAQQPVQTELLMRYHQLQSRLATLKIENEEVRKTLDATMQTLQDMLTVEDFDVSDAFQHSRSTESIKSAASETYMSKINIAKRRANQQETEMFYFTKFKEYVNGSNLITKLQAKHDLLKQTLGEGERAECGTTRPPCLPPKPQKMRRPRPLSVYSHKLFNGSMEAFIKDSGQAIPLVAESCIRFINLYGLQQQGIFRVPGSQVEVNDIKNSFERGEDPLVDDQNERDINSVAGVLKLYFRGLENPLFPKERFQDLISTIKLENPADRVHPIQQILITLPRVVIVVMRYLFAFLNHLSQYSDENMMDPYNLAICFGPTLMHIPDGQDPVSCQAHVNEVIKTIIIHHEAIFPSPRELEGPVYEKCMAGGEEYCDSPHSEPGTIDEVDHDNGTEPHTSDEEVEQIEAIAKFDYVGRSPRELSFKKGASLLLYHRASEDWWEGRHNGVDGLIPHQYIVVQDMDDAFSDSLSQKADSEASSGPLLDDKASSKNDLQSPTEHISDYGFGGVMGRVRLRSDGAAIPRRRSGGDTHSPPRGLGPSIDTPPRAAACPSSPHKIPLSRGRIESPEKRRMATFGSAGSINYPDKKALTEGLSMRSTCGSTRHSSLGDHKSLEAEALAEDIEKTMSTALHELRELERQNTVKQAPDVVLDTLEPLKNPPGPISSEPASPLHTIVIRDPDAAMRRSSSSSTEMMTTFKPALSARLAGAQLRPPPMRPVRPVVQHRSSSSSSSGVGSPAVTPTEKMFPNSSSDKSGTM

Assays:
[1] = target: HA epitope tagged CARMIL3 (UniProt Q3UFQ8); assay: co-IP; HEK293T cells co-transfected with HA-CARMIL3 constructs, Wrp constructs and CAPZB2-TwinStrepII; lysis in 25 mM HEPES, 150 mM NaCl, 0.5% Triton X-100, 1 mM EDTA; anti-HA beads overnight; blots with anti-HA, anti-V5, anti-capping protein beta
[2] = target: endogenous CARMIL3-myc (mouse (endogenous in mouse brain)) (UniProt Q3UFQ8); assay: co-IP; P7 whole brain lysates of Cas9 KI mice with HITI myc-tagged endogenous CARMIL3, against uninfected pups; Myc beads (myc nano-trap resin); blots for Wrp, capping protein beta and ArpC3

Row | Substance | binding [1] | binding [2]
1 | V5-epitope tagged Wrp (full-length) (from UniProt Q812A2 1-1099) | binds | 
2 | endogenous Wrp (from UniProt Q812A2 1-1099) |  | binds
